In all, about 300,000 compounds went through this assay and about 5,400 (1.8%) were called active. Inconclusive results, whose numbers are uncertain, are shown with a selection of clear calls. Calls come from the whole dose curve; tested in HEK293 cells. Where the call is inconclusive, the potency comes from a doubtful curve fit.
Test: qHTS for inhibitors of binding or entry into cells for Marburg Virus
Settings: Marburg virus pseudotyped entry inhibition, cell reporter; activity change, negative = inhibition: at 37.8 µM (top of the series) unless noted
% is set by controls: 0 for no effect and ±100 for the full control effect; potency is the fitted concentration of half-maximal effect.

Compound	activity change, negative = inhibition	Potency
O=C(c1cccc(Cl)c1)N1CCC(=O)N(C(COCc2cccc(Cl)c2)Cc2ccccc2)CC1 (stereo not given)	inactive: -17.3%	
C[C@]12CCC3C(CC[C@@H]4C[C@H](O)CC[C@]34C)C1CCC2=O (stereo not given in full)		inconclusive: 35.5 µM [inhibitor, single point]
CCc1cccc(-n2nnc(S(=O)(=O)c3ccc(OC)cc3)c2C)c1	inconclusive: 3.05% [activator] [at 46.1 µM]	
CN(C)CCCN(C(=O)CCc1ccccc1)c1nc2ccc(Br)cc2s1		inconclusive: 35.5 µM [inhibitor, single point]
COc1ccc(Cl)cc1NC(=S)NCc1ccccn1		inconclusive: 35.5 µM [activator, single point]
Cn1c(CS(=O)Cc2c(Cl)cccc2Cl)nnc1SCc1c(Cl)cccc1Cl (stereo not given)		inconclusive: 0.651 µM [inhibitor, single point]
CCOC(=O)C(C)n1nc(/C=C/c2ccc(OC)cc2)ccc1=O (stereo not given)	inactive: 4.49% [at 46.1 µM]	
Cc1cc(NC(=O)c2c(F)cccc2F)n(-c2nc3ccccc3[nH]2)n1		inconclusive: 20.6 µM [inhibitor, partial curve]
CCC(CC)c1nnc(NC(=O)C2=COCCO2)s1		inconclusive: 15.8 µM [activator, single point]
COCCNC(=S)N(Cc1cccs1)Cc1cc2cccc(C)c2[nH]c1=O		inconclusive: 3.16 µM [inhibitor, full curve]
COc1cccc(OCc2cc(/C=N/NC(=O)c3nc(Cl)c(Cl)c(N)c3Cl)ccc2OC)c1		inconclusive: 0.501 µM [inhibitor, full curve, poor fit]
COc1ccc(NS(=O)(=O)c2cccc(C(=O)N/N=C/c3ccccc3OC)c2)cc1	inactive: -5.35%	
CCCC(C(=O)NC1CCCC1)N(Cc1ccccc1Cl)C(=O)c1snc(C(N)=O)c1N (stereo not given)		active: 10 µM
S=C(Nc1ccc2cn[nH]c2c1)Nc1ccccc1Cl	inactive: -9.1%	
CCCCCc1cc(O)c2c(C)cc(=O)oc2c1	inactive: -85.4%	
c1ccc(C(c2nnnn2Cc2cccs2)N2CCN(C3CCCC3)CC2)cc1 (stereo not given)		inconclusive: 35.5 µM [inhibitor, single point]
CCCN1CCN(CCCNC(=O)c2cc3c(s2)-c2ccccc2OC3)CC1		inconclusive: 20 µM [inhibitor, single point]
O=C(CN(Cc1ccc(Cl)c(Cl)c1)S(=O)(=O)c1ccccc1)N/N=C\c1ccc2c(c1)OCO2		inconclusive: 11.2 µM [inhibitor, partial curve, poor fit]
Cc1cc(O)cc(O)c1-c1onc(C(F)(F)F)c1-c1cscn1		inconclusive: 35.5 µM [inhibitor, single point]
O=C(Nc1ccc(CN2CCOCC2)cc1)c1ccco1		inconclusive: 1.12 µM [activator, partial curve, poor fit]
COc1ccc(-c2nsc(NC(=O)c3oc4ccccc4c3C)n2)cc1	inactive: -17.7% [at 46.1 µM]	
COc1ccc(-c2nnn(CC(=O)N3CCOCC3)n2)cc1	inactive: 3.51%	
O=C(OCC1O[C@@H](OC(=O)c2cc(O)c(O)c(O)c2)[C@@H](OC(=O)c2cc(O)c(O)c(O)c2)[C@@H](OC(=O)c2cc(O)c(O)c(O)c2)[C@@H]1OC(=O)c1cc(O)c(O)c(O)c1)c1cc(O)c(O)c(O)c1 (stereo not given in full)		inconclusive: 16.4 µM [inhibitor, single point]
CCOC(=O)/C(=C/C=C1\Sc2ccccc2N1CC)C(C)=O		inconclusive: 11.2 µM [inhibitor, partial curve, poor fit]

Structures listed so far with a furan ring, fused or not:
Compound	activity change, negative = inhibition	Potency
O=C(Nc1ccc(CN2CCOCC2)cc1)c1ccco1		inconclusive: 1.12 µM [activator, partial curve, poor fit]
COc1ccc(-c2nsc(NC(=O)c3oc4ccccc4c3C)n2)cc1	inactive: -17.7% [at 46.1 µM]	

Remaining list, next part:

Compound	activity change, negative = inhibition	Potency
c1ccc(Nc2cccc(Nc3ccccc3)c2)cc1		inconclusive: 5.62 µM [activator, single point]
CCOc1ccc(S(=O)(=O)N2CCCCC2)cc1NC(=O)CC1OC(=O)c2ccccc21 (stereo not given)		inconclusive: 20 µM [activator, single point]
COc1ccc2cc3cc(C(=O)NCCN4CCN(c5ccccc5F)CC4)oc3nc2c1		active: 12.6 µM
CC(C)C1Nc2ccc(C(=O)O)cc2C2C=CCC21 (stereo not given)	inactive: 17.3%	
Cc1ccc(-c2nn(-c3ccccc3)cc2C(=O)N2CCN(c3ccccn3)CC2)cc1		inconclusive: 8.91 µM [inhibitor, partial curve, poor fit]
COc1ccc(NC(=O)Nc2cc(F)ccc2C)cc1		inconclusive: 0.891 µM [inhibitor, full curve, poor fit]
COC(=O)c1c(NC(C)=O)sc(C(=O)Nc2ccccc2F)c1C	inactive: 23.3% [at 46.1 µM]	
Cc1ccc(CN2C3CCCC2CC(NC(=O)c2ccc(C)cc2)C3)cc1 (stereo not given)		active: 13 µM
Cc1cccc(C=CC(=O)c2ccccc2)c1	inactive: -13%	
CCc1c(C(=O)NNC(=O)Nc2ccc3c(c2)OCO3)csc1C	inactive: 25.6%	
C[N+](C)(CC#Cc1ccccc1)CC(=O)c1ccc(Cl)cc1		inconclusive: 2.82 µM [activator, single point]
COc1ccc(Sc2ccc(/C=C3\C(=O)NN(c4ccccc4)C3=O)o2)cc1		inconclusive: 3.16 µM [inhibitor, single point]
Cn1c(N)c(NC(=S)NC2CCCCC2)c(=O)n(C)c1=O		inconclusive: 35.5 µM [activator, single point]
Cc1ccc2nc3sc(C(=O)N4CCOCC4)c(N)c3cc2c1		active: 0.411 µM
COc1ccc(-c2noc(C3CCCN(S(=O)(=O)c4cccc(Cl)c4C)C3)n2)cc1OC (stereo not given)		inconclusive: 29.1 µM [inhibitor, single point]
COc1cccc2cc(C(=O)c3ccccc3)oc12	inactive: -1.16% [at 46.1 µM]	
O=C(CCl)Nc1cc(SCC(O)CO)cc([N+](=O)[O-])c1 (stereo not given)		inconclusive: 1.12 µM [inhibitor, full curve, poor fit]
C[C@H](Sc1ccc2ccccc2n1)C(=O)O		inconclusive: 0.891 µM [activator, single point]
COc1ccc2oc(C(=O)NCC(c3ccco3)N(C)C)c(C)c2c1 (stereo not given)	inactive: 0.337%	
O=C(c1cccc(NS(=O)(=O)c2ccccc2)c1)N1CCCCC1	inactive: 3.69% [at 46.1 µM]	
COc1cc(/C=N/NC(=Nc2ccc(C)cc2)c2nc3ccccc3s2)ccc1O		inconclusive: 25.9 µM [inhibitor, single point]
Cc1c(CC(=O)N2CCCCC2)c(=O)oc2cc(O)ccc12	inactive: 11% [at 46.1 µM]	
O=C(COC(=O)c1cc(-c2cccc(Br)c2)nc2ccccc12)NCC1CCCO1 (stereo not given)		inconclusive: 10 µM [inhibitor, partial curve, poor fit]
CC(Sc1nnc(-c2cccnc2)n1-c1ccccc1F)C(=O)N1CCCc2ccccc21 (stereo not given)	inactive: -0.733%	

Reformatted: entries from further up

| Compound | activity change, negative = inhibition | Potency |
| --- | --- | --- |
| Cc1ccc(CN2C3CCCC2CC(NC(=O)c2ccc(C)cc2)C3)cc1 (stereo not given) |  | active: 13 µM |
| COc1ccc(Sc2ccc(/C=C3\C(=O)NN(c4ccccc4)C3=O)o2)cc1 |  | inconclusive: 3.16 µM [inhibitor, single point] |
| Cc1ccc2nc3sc(C(=O)N4CCOCC4)c(N)c3cc2c1 |  | active: 0.411 µM |

(cont.)

Compound	activity change, negative = inhibition	Potency
CCc1ccc(/C=N/NC(=S)NCCc2ccccc2)cc1	inactive: -22.1%	
O=C(COc1ccc(-c2ccccc2)cc1)N1CCN(C(=O)c2cccnc2)CC1	inactive: 13.5%	
COC(=O)c1ccc(/C=N/NC(=S)NCCN2CCOCC2)cc1		inconclusive: 6.31 µM [inhibitor, partial curve, poor fit]
Cc1ccc(N(CC(O)Cn2c3ccccc3c3ccccc32)S(=O)(=O)c2ccc(F)cc2)cc1 (stereo not given)		inconclusive: 35.5 µM [inhibitor, single point]
CSc1nc(N)nc(SCC(=O)C23CC4CC(CC(C4)C2)C3)c1C#N		active: 20.6 µM
Cc1nn(Cc2ccc(Cl)cc2)c(C)c1NC(=O)c1cc(-c2ccco2)on1	inactive: -5.55%	
CCC(NC(C)C)C(O)c1ccc(O)c(O)c1 (stereo not given)		inactive
CCOc1cccc2sc(=NC(=O)CCS(=O)(=O)c3ccc(F)cc3)n(C)c12		inconclusive: 31.6 µM [inhibitor, single point]
O=C(Nc1nc2c(F)cc(F)cc2s1)C1CCN(C(=O)c2ccc(F)cc2)CC1	inactive: 20.2% [at 46.1 µM]	
O=C(Nc1ccccc1C(=O)O)c1cc(S(=O)(=O)Nc2ccccc2)ccc1Cl		inconclusive: 35.5 µM [inhibitor, partial curve, poor fit]
O=C(N=Nc1c(O)[nH]c2ccccc12)Nc1ccccc1		inconclusive: 0.282 µM [activator, partial curve, poor fit]
O=C(NC1CCCCC1)c1ccc(-c2ccccc2[N+](=O)[O-])o1		inconclusive: 7.08 µM [activator, partial curve, poor fit]
N#C/C(=C\c1cccs1)Sc1nc2ccccc2s1		inconclusive: 35.5 µM [inhibitor, single point]
Cc1cc(C)c(S(=O)(=O)n2ccc(-c3ccc(OCCN(C)c4ccccn4)cc3)n2)c(C)c1		inconclusive: 35.5 µM [inhibitor, single point]
Cc1ccc(C(=O)N2CCOCC2)cc1Cl	inactive: -4.18% [at 46.1 µM]	
Cc1cc2nccc(-c3ccncc3)n2n1	inactive: 5.35% [at 46.1 µM]	
CNC(=O)CC1C(=O)N(c2ccc(Cl)cc2)C(=S)N1CCc1ccc(OC)c(OC)c1 (stereo not given)		inconclusive: 10 µM [inhibitor, partial curve, poor fit]
Nc1nonc1-n1nnc(C(=O)N/N=C/c2cc(Br)ccc2O)c1CNc1ccccc1		inconclusive: 22.4 µM [inhibitor, single point]
COc1cccc(NC(=O)Cn2c(=O)n(-c3ccccc3)c(=O)c3ccc(C(=O)NCc4ccc5c(c4)OCO5)cc32)c1		inconclusive: 1.12 µM [inhibitor, partial curve, poor fit]
CCC(C(=O)Nc1c[nH]c(=O)[nH]c1=O)c1ccccc1 (stereo not given)	inactive: -2.73%	
CC(=O)c1ccc(NC(=O)C2(S(=O)(=O)c3ccccc3)CC2)cc1		inconclusive: 28.2 µM [activator, single point]
O=C(NCc1ccccc1)C(c1ccco1)N(C(=O)c1ccccn1)c1ccc(F)cc1 (stereo not given)		inconclusive: 1.26 µM [activator, single point]

Source: PubChem BioAssay AID540276 (National Center for Advancing Translational Sciences (NCATS), 2011)
